Data: patent EP4442275A1, “ANTI-TYPE II COLLAGEN ANTIBODIES” (ModiQuest B.V., priority 2023, dated 2024)
Where a chain is given by its changes, count along the chain named. Results are given in words; binding and its absence hold for the method and conditions named. Some results given as binding are weak or reduced against the parent protein; the word gives no strength.

Amino acid sequences for entries named in this document (tags omitted). Residues count along the entry.
UniProt P02459, residues 182-1241: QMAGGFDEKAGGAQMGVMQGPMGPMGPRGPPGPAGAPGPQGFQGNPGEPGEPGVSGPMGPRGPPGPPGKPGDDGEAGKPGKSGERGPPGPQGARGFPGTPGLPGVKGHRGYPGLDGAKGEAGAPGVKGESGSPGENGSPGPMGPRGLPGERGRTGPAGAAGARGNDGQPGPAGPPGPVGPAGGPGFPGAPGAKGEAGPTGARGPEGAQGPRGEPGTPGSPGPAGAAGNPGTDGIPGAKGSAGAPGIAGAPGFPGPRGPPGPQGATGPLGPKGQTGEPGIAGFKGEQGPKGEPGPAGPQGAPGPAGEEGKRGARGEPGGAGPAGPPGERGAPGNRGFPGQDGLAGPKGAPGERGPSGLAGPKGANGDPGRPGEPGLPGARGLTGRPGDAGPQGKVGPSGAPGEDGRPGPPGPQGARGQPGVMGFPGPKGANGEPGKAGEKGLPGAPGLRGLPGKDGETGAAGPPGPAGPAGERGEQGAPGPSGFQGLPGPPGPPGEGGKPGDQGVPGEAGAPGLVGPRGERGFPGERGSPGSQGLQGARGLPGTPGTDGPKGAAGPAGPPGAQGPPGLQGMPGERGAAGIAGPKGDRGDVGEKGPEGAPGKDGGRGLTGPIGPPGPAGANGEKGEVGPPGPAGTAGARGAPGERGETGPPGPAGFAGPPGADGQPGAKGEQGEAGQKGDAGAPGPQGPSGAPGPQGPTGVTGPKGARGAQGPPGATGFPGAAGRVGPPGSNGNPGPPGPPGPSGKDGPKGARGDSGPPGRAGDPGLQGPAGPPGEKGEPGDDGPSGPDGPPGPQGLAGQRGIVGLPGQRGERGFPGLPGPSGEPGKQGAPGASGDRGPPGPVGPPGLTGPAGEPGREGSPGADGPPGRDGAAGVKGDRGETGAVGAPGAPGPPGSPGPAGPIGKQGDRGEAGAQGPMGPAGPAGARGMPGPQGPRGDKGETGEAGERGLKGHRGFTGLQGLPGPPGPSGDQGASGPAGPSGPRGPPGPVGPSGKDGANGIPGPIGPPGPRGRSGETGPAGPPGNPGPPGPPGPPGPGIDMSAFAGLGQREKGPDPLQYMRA
UniProt P02458, residues 182-1241: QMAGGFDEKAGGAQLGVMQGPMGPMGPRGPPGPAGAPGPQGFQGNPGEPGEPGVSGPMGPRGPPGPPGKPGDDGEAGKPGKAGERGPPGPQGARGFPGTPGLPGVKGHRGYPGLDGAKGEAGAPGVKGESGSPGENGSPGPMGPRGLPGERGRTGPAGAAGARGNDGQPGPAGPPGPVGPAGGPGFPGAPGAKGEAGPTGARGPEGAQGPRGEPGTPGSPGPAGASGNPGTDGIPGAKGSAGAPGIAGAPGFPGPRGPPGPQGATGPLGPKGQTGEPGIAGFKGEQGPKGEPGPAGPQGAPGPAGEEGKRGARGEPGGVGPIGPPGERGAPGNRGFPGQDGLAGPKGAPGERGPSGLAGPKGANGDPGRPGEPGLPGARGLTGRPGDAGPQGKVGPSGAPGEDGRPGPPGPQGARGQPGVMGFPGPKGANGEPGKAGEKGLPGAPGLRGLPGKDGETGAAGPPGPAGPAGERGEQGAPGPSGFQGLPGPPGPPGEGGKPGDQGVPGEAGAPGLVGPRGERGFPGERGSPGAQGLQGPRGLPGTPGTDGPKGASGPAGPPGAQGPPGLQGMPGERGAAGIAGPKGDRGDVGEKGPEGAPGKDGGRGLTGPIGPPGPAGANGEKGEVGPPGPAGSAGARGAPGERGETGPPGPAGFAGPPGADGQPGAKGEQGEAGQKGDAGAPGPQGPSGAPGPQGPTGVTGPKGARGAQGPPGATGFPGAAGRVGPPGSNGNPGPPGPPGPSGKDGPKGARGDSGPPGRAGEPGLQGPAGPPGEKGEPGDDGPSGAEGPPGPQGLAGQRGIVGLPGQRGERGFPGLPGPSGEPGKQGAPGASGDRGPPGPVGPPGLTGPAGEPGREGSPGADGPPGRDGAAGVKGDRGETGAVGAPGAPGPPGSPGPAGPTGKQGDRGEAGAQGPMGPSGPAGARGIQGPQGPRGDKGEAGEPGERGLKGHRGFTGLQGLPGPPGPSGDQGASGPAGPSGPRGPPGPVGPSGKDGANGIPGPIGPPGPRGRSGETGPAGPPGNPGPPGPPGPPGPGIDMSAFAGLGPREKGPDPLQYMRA

How the values were obtained:
[1] = target: Bovine Collagen type II (bovine) (UniProt P02459); assay: ELISA on coated bovine collagen type II, anti-human IgG-HRP
[2] = target: Bovine Collagen type II (bovine) (UniProt P02459); assay: ELISA on coated collagen type II (Figure 3, bovine), anti-human IgG-HRP
[3] = target: Bovine Collagen type II (bovine) (UniProt P02459); assay: Fig 6A legend: HRP/DAB staining of bovine cartilage punches, untreated or trypsin-treated
[4] = target: Bovine Collagen type II (bovine) (UniProt P02459); assay: 111In-DTPA-labelled antibody (4 µg/ml) on bovine cartilage explants, gamma counting (Example 5)
[5] = target: Bovine Collagen type II (bovine) (UniProt P02459); assay: ELISA on coated bovine collagen type II
[6] = target: Bovine Collagen type II (bovine) (UniProt P02459); assay: ELISA on coated bovine collagen type II, anti-mouse IgG-HRP
[7] = target: Bovine Collagen type II (bovine) (UniProt P02459); assay: Fig 1 legend: 125I-labelled antibody on trypsin-damaged bovine cartilage explants
[8] = target: Bovine Collagen type II (bovine) (UniProt P02459); assay: 125I-labelled antibody on trypsin-damaged bovine cartilage explants, gamma counting
[9] = target: Bovine Collagen type II (bovine) (UniProt P02459); assay: 111In-DTPA-labelled antibody on bovine cartilage explants, gamma counting (Example 5)
[10] = target: Bovine Collagen type II (bovine) (UniProt P02459); assay: 111In-DTPA-labelled antibody on untreated bovine cartilage explants, gamma counting (Example 5)
[11] = target: Bovine Collagen type II (bovine) (UniProt P02459); assay: ELISA on coated collagen type II (Figure 3, bovine), anti-mouse IgG-HRP; the filing warns that the different secondary antibody could cause the difference
[12] = target: Bovine Collagen type II (bovine) (UniProt P02459); assay: HRP/DAB staining of bovine cartilage punches, 5 µg/ml primary antibody (Example 4)
[13] = target: Bovine Collagen type II (bovine) (UniProt P02459); assay: Fig 7 legend: weight-corrected cartilage-associated radioactivity, bovine explants
[14] = target: Human collagen Type II (human) (UniProt P02458); assay: Fig 10 legend: in vivo IVIS imaging of human cartilage implants in SCID mice
[15] = target: Human collagen Type II (human) (UniProt P02458); assay: Fig 11 legend: fluorescence of labelled antibody on human OA cartilage explants
[16] = target: Human collagen Type II (human) (UniProt P02458); assay: 111In-DTPA-labelled antibody on human cartilage explants, gamma counting (Example 5)
[17] = target: Human collagen Type II (human) (UniProt P02458); assay: Fig 8 legend: 111In-DTPA-labelled antibody on human cartilage explants, gamma counting
[18] = target: Human collagen Type II (human) (UniProt P02458); assay: 111In-DTPA-labelled antibody (4 µg/ml) on human cartilage explants, gamma counting (Example 5)
[19] = target: Human collagen Type II (human) (UniProt P02458); assay: in vivo: labelled antibody injected i.v. into SCID mice with human cartilage implants (Example 7)
[20] = target: Human collagen Type II (human) (UniProt P02458); assay: Fig 9 legend: fluorescence of labelled antibody on human cartilage explants with or without trypsin
[21] = target: Bovine Collagen type II (bovine) (UniProt P02459); assay: 111In-DTPA-labelled antibody on trypsin-damaged bovine cartilage explants, gamma counting (Example 5)
[22] = target: Human collagen Type II (human) (UniProt P02458); assay: DTPA-IrDye 800CW-labelled antibody (4 µg/ml) on human cartilage explants, Odyssey near infrared imaging (Example 6)
[23] = target: Human collagen Type II (human) (UniProt P02458); assay: DTPA-IrDye 800CW-labelled antibody (4 µg/ml) on human OA cartilage of different damage stages, Odyssey imaging (Example 8)
[24] = target: Human collagen Type II (human) (UniProt P02458); assay: in vivo: labelled antibody injected i.v. into SCID mice with human cartilage implants; IVIS imaging and gamma counting (Example 7)

Measured: binding

B1: MQ4.117hz_1_2 (antibody, V domains shown)
VH: QVQLVQSGAEVKKPGASVKVSCKASGYTFTSCNMHWVRQAPGQRLEWIGAVYPGNGDTSYNQKFQGRVTITRDTSASTAYMELSSLRSEDTAVYYCARGKRDAMDYWGQGTLVTVSS
VL: DIVMTQTPLSLSVTPGQRASISCRASESVDSYGNSFMHWYLQKPGQPPQLLIYRASNLESGVPDRFSGSGSGTDFTLKISRVEAEDVGVYYCQQSNEDPLTFGQGTKVEIK
binds: [1] | [2] | [3] | [4]

B2: MQ4.117 (antibody, V domains shown)
VH: QVQLQQPGAELVKPGASVKMSCKTSGYTFTSCNMHWVKQTPGQGLEWIGAVYPGNGDTSYNQKFKGKATLTADKSSSTAYMQLSSLTSEDSAVYYCARGKRDAMDYWGQGTSVTVSS
VL: DIVLTQSPASLAVSLGQRATISCRASESVDSYGNSFMHWYQQKPGQPPKLLIYRASNLESGIPARFSGSGSRTDFTLTINPVEADDVATYYCQQSNEDPLTFGAGTKLELK
binds: [5] | [6] | [7] | [8] | [9] | [3] | [4] | [10] | [11]

B3: MQ4.117m_1_1 (antibody, IgG1, V domains shown)
VH: B2 VH
VL: B2 VL
binds: [1] | [3] | [4]

B4: MQ4.112m_1_1 (antibody, V domains shown)
VH: DVQLQESGPGLVKPSQSLSLTCSVTGYSITSDYYWHWIRQFPGNKLEWMGYISYDGSNNYNPSLKNRISITRDTSKNQFFLKLNSVTTEDTATYYCARDDDAMDYWGQGTSVTVSS
VL: DIQMTQTTSSLSASLGDRVTISCRASQDISNYLNWYQQKPDGTVKLLIYYTSRLHSGVPSRFSGSGSGTDYSLTISNLEQEDIATYFCQQGNTLPPTFGGGTKLEIK
binds: [1] | [12] | [3] | [4]

B5: MQ4.112 (antibody, V domains shown)
VH: B4 VH
VL: B4 VL
binds: [5] | [6] | [7] | [13] | [12] | [8] | [9] | [3] | [4]

B6: MQ4.112hz_1_1 (antibody, V domains shown)
VH: QVQLQESGPGLVKPSETLSLTCAVSGYSITSDYYWHWIRQPPGKGLEWMGYISYDGSNNYNPSLKSRVTISVDTSKNQFSLKLSSVTAADTAVYYCARDDDAMDYWGQGTLVTVSS
VL: DIQMTQSPSSLSASVGDRVTITCRASQDISNYLNWYQQKPGKAPKLLIYYTSRLHSGVPSRFSGSGSGTDFTFTISSLQPEDIATYYCQQGNTLPPTFGQGTKVEIK
binds: [1] | [2]

B7: MQ4.112hz_1_2 (antibody, V domains shown)
VH: B6 VH
VL: B6 VL with P80Y
binds: [1] | [2]

B8: MQ4.112hz_2_2 (antibody, IgG1, V domains shown)
VH: B6 VH with Q1D
VL: B6 VL with P80Y
binds: [1] | [2]

B9: MQ4.112hz_3_2 (antibody, V domains shown)
VH: B6 VH with Q1D, P41F
VL: B6 VL with P80Y
binds: [1] | [2]

B10: MQ4.112hz_2_1 (antibody, V domains shown)
VH: B6 VH with Q1D
VL: B6 VL
binds: [1] | [2]

B11: MQ4.112hz_4_1 (antibody, V domains shown)
VH: B6 VH with Q1D, P41F, V72R
VL: B6 VL
binds: [1] | [2]

B12: MQ4.112hz_3_1 (antibody, V domains shown)
VH: B6 VH with Q1D, P41F
VL: B6 VL
binds: [1] | [2] | [14] | [15] | [12] | [16] | [9] | [17] | [3] | [18] | [4] | [19] | [20] | [21] | [22] | [23] | [24]

B13: MQ4.112hz_4_2 (antibody, V domains shown)
VH: B6 VH with Q1D, P41F, V72R
VL: B6 VL with P80Y
binds: [1] | [2]
